Laboratory results: publication PMC7819943, “Rice protein-binding microarrays: a tool to detect cis-acting elements near promoter regions in rice”
The list shows a part of the results.

biological target: T1, OsSMF1 (Oryza sativa, UniProt Q6ZLB0 1-436); experiment: protein-binding microarray (RPBM); PBS, 2% BSA, 51.3 ng/ul salmon testes DNA, 50 uM zinc acetate, 200 nM TF, 25 C, 1 h; high values mean tight binding; settings: protein: recombinant; tags: N-terminal polyhistidine and DsRed monomer fusion (pET32a); chain copies: 2; label: CyDye5-dUTP incorporated in the synthesized complementary strand; 3' TTTTT single-stranded linker to array surface; dsDNA, one strand shown
T1 sequence: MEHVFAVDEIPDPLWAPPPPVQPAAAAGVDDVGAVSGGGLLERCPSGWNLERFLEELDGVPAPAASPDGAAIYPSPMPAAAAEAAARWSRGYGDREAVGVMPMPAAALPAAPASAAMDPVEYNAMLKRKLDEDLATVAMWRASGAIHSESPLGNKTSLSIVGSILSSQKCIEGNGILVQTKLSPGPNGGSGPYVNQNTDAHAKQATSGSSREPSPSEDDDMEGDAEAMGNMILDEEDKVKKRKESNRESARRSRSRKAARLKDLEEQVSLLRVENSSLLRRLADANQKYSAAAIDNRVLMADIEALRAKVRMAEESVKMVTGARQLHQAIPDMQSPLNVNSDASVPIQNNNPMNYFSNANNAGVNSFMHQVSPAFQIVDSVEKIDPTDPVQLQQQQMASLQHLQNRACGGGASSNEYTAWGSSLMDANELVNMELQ
Method in brief: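 For the binding signal, per-feature fluorescence intensity was read in arbitrary units on an Axon 4000B scanner. Before scanning, a 2% BSA-blocked custom Agilent array made double-stranded with Cy5-dUTP was washed after 1 h at 25 °C with 200 nM protein and 50 µM zinc acetate. The proteins were Ni–NTA-purified transcription factors with N-terminal polyhistidine and DsRed fusions, expressed in E. coli BL21-CodonPlus.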

Sequence | binding signal
ATAACAGCAGGGCGCAAAGCTACACACACGTACGCACACGCGGAGTCACCTAGTGCAG | 4850 fluorescence intensity (a.u.)
TTTTCGATATATAATTGCCACGTAAGCGTCACGTCAATGCCGGAGTCACCTAGTGCAG | 34300 fluorescence intensity (a.u.)
TAGTAATGTCGTTAAGAAATACCAACAACAATGCAGCAACCGGAGTCACCTAGTGCAG | 3200 fluorescence intensity (a.u.)
GCCCACATCCATCCCGTCACCCGCCCACTCGCCGTCGCACCGGAGTCACCTAGTGCAG | 3490 fluorescence intensity (a.u.)
ATTTACCCCTCTAAACTACGATACCGGACATTTGACACCCCGGAGTCACCTAGTGCAG | 3360 fluorescence intensity (a.u.)
GCGGCTAGTCCAAACCATACTTTGTTTTCTTGCAGGACCCCGGAGTCACCTAGTGCAG | 33700 fluorescence intensity (a.u.)
GTGGCCATGCTGATGACACTCCACACTCCTCGACTTTCGTCGGAGTCACCTAGTGCAG | 3400 fluorescence intensity (a.u.)
TTTTGCTAACGTGACAGGTCCACCACATCAGCACGTGGAACGGAGTCACCTAGTGCAG | 7760 fluorescence intensity (a.u.)
ATTAATCATACGCTAATGACTCATCTTATTTTACGTATCTCGGAGTCACCTAGTGCAG | 8350 fluorescence intensity (a.u.)
ATAGTGGTTTTGGCTGACGTGGCGCCTACGTGGCTAATTTCGGAGTCACCTAGTGCAG | 19600 fluorescence intensity (a.u.)
CCTTTCCTTCTCCCGCATCTCTCCACGCGAGCGGCCTCTGCGGAGTCACCTAGTGCAG | 3420 fluorescence intensity (a.u.)
GTTGAGCTCTTCTCACCTGCTTGCCGCGGCGTGGTTGCCGCGGAGTCACCTAGTGCAG | 19400 fluorescence intensity (a.u.)
AGCAGTGAGCAGTGCCACGTGGGCAGCCCAACACATAAGCCGGAGTCACCTAGTGCAG | 11900 fluorescence intensity (a.u.)
AGAGGCCCATAACCGCATACCCCTAGGGCCACGCTATGCTCGGAGTCACCTAGTGCAG | 3510 fluorescence intensity (a.u.)
GCCCTGTTTATTTTGTACTACTACCGATCGGGCACGGATCCGGAGTCACCTAGTGCAG | 23900 fluorescence intensity (a.u.)
GAGCATTTAGAAGAGGTGGCAAAGTTAACATACTTTTGTCCGGAGTCACCTAGTGCAG | 3930 fluorescence intensity (a.u.)
GCCGTAATGCTTCTGAGTTCTGACTCCTGCTGCGCTCTCACGGAGTCACCTAGTGCAG | 4100 fluorescence intensity (a.u.)
CTGACGATGACTAGTGTGGACGACGAGGGTGTCGATGTGCCGGAGTCACCTAGTGCAG | 3340 fluorescence intensity (a.u.)
TATTCTTCTGATTCATCCTGTTGCTGTCTGTCAAGTGGGACGGAGTCACCTAGTGCAG | 3220 fluorescence intensity (a.u.)
CCTGTCAAATTTGCCTAACCTTAGACGTGGCAAACTGTGGCGGAGTCACCTAGTGCAG | 3670 fluorescence intensity (a.u.)
AGAATTTCAACCGGAGTGACATCACATAATTACATATGTGCGGAGTCACCTAGTGCAG | 5940 fluorescence intensity (a.u.)

Sequence | binding signal
CAGTTTGTGCTGCCACTTTATTTGTACACGCCAGTGACTGCGGAGTCACCTAGTGCAG | 6360 fluorescence intensity (a.u.)
GATGTTGATTAGGATGTGACGTGCATACGTGTAGTAGGGTCGGAGTCACCTAGTGCAG | 13900 fluorescence intensity (a.u.)
TACTCTACGTGGCGTGGCAGTCGTCCTCCTCCCTCCCACGCGGAGTCACCTAGTGCAG | 8390 fluorescence intensity (a.u.)
AGCTAGAACGCACAGACTTTAGGCTTTAGGTACGATGATGCGGAGTCACCTAGTGCAG | 43300 fluorescence intensity (a.u.)
CTTTTAGAGCACCCATAATGGTAAAATAAGATGCTCTCTACGGAGTCACCTAGTGCAG | 30100 fluorescence intensity (a.u.)
TTATCACCAACGCGGAGTCACCCGAGCCCACATCGCGTGACGGAGTCACCTAGTGCAG | 4780 fluorescence intensity (a.u.)
TATTGGGCAAGAGTACGTCGTTTGCCACCTTGGCCGCCACCGGAGTCACCTAGTGCAG | 3500 fluorescence intensity (a.u.)
ATTACTGGCTCGGCTCGATGACACCTATATTATAGGTGTCCGGAGTCACCTAGTGCAG | 3550 fluorescence intensity (a.u.)
GGTCTTCATATGACGTGGCACTGACGTGGCGCTTATGTGGCGGAGTCACCTAGTGCAG | 32100 fluorescence intensity (a.u.)
TCCCTGCGAAATTGTACACATCAACACAACATAAGGTCGACGGAGTCACCTAGTGCAG | 3700 fluorescence intensity (a.u.)
AAGCAGCTCGCTCGAGTCGAGCTCCCCTCTCCGCCCGGGGCGGAGTCACCTAGTGCAG | 3920 fluorescence intensity (a.u.)
AAGGCTTTTCGTAAGTAGTGCGTGCGTGCAGTTACAGAGCCGGAGTCACCTAGTGCAG | 3290 fluorescence intensity (a.u.)
GGAATATAAGCCGCCAAGCTCCATGTCGTCAGTGCTGATGCGGAGTCACCTAGTGCAG | 5020 fluorescence intensity (a.u.)
GACTTGTCCATGCATGCATGCATGACTTGTGTTCAGCCACCGGAGTCACCTAGTGCAG | 3700 fluorescence intensity (a.u.)
AGGGATGTTTCTGTAATTTCACACAAAGAAGAGGGTACAACGGAGTCACCTAGTGCAG | 3220 fluorescence intensity (a.u.)
CGTAGGACAGGAGTATGTAACGTGCCTCGTCAACACGACGCGGAGTCACCTAGTGCAG | 5130 fluorescence intensity (a.u.)
TCCAACCATGCCACCTCGGATCACATGGCCAGAATGTCCACGGAGTCACCTAGTGCAG | 4580 fluorescence intensity (a.u.)
TCGCCGAATCACGACACTGCTGCCGACGACGATGGTGACGCGGAGTCACCTAGTGCAG | 3930 fluorescence intensity (a.u.)
GAGCTGGTAGATTGTAGTACGTGGTAGATACTTACTTACTCGGAGTCACCTAGTGCAG | 3800 fluorescence intensity (a.u.)
GATAAAGTTTACCTGTTTTCGATTGGTTGGCTGACGTGTCCGGAGTCACCTAGTGCAG | 16500 fluorescence intensity (a.u.)
TAGCCCGACGTGACGCTGAGTCAGCGTGGGACCCACGTGGCGGAGTCACCTAGTGCAG | 19000 fluorescence intensity (a.u.)

Copied from the list.
Value for TCGCCGAATCACGACACTGCTGCCGACGACGATGGTGACGCGGAGTCACCTAGTGCAG under binding signal: 3930 fluorescence intensity (a.u.)
Value for CGTAGGACAGGAGTATGTAACGTGCCTCGTCAACACGACGCGGAGTCACCTAGTGCAG under binding signal: 5130 fluorescence intensity (a.u.)
Value for TCCAACCATGCCACCTCGGATCACATGGCCAGAATGTCCACGGAGTCACCTAGTGCAG under binding signal: 4580 fluorescence intensity (a.u.)
Value for ATTACTGGCTCGGCTCGATGACACCTATATTATAGGTGTCCGGAGTCACCTAGTGCAG under binding signal: 3550 fluorescence intensity (a.u.)
